The subject of assay [1] is SARS-CoV-2 -1 PRF reporter mCherry-FSE-GFP(-1). The experiment in a line: mCherry (red) intensity as percent of control; higher = higher upstream reporter expression. The following applies: 10 µM; 24 h; HEK293T.
The test system is the same in assay [2]. Description: percent effect, decrease of GFP/mCherry ratio (-1 PRF reporter) relative to controls; higher = stronger frameshift inhibition. The settings on record: 10 µM; 24 h; HEK293T.

Some of the results follow. Repeats in this data set agree poorly, so a single value says little.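 HEK293T cells were given each compound shortly before transfection with a reporter in which red mCherry is followed by the SARS-CoV-2 frameshift element and then GFP in the −1 frame, so GFP appears only after frameshifting.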

`CC[C@H](C)[C@H](N)C(=O)O` [isoleucine] came in with a mCherry in assay [1] of 89.7%. For the same molecule, the percent effect in assay [2] was -6.22%.

In turn, `CCCCC/C=C\C/C=C\C/C=C\CCCCCCC(=O)O` registered a mCherry in assay [1] of 110%. In addition, the percent effect in assay [2] was -0.966%.

In assay [1], `Cc1ncc([N+](=O)[O-])n1CC(O)CCl` (stereo not given) [ornidazole] showed a mCherry of 85.9%. Besides, the percent effect in assay [2] was -5.02%.

In turn, `NOCc1ccc(Br)c(O)c1` [brocresine] returned a mCherry in assay [1] of 118%. Moreover, in assay [2], the percent effect was -12.3%.

Take `CC(C)COC(=O)c1ccc(N)cc1` [isobutamben]: the mCherry in assay [1] worked out at 82.3%. Also, in assay [2], the percent effect was -1.83%.

`Cc1cc(NC(=O)C2=C(O)c3ccccc3S(=O)(=O)N2C)no1` [isoxicam] registered a mCherry in assay [1] of 63.5%. Moreover, the percent effect in assay [2] was -3.14%.

Turning to `O=C1c2c(O)cccc2[C@@H](O[C@@H]2O[C@H](CO)[C@H](O)[C@@H](O)[C@H]2O)c2cc(CO)cc(O)c21`, the mCherry in assay [1] is 112%. Also, the percent effect in assay [2] is -12.3%.

`Cc1cc(C)c(NC(=O)CN(CC(=O)O)CC(=O)O)c(C)c1Br` [mebrofenin] returned a mCherry in assay [1] of 85.8%. In addition, the percent effect in assay [2] came out at 0.479%.

As to `CC(Oc1ccccc1)C(=O)N[C@@H]1C(=O)N2[C@@H]1SC(C)(C)[C@@H]2C(=O)O` (stereo not given in full), the mCherry in assay [1] is 123%. Also, the percent effect in assay [2] was 0.724%.

The molecule `O=C(O)CCSCC(=O)O` [danosteine] showed a mCherry in assay [1] of 74.7%. Besides, the percent effect in assay [2] was -5.96%.

Take `N[C@@H](Cc1cc(I)c(Oc2cc(I)c(O)c(I)c2)c(I)c1)C(=O)O`: the mCherry in assay [1] was 109%. For the same molecule, the percent effect in assay [2] was found to be 2.49%.

With `CC(C)(C)NCC(O)CSc1nc(-c2ccc(C(N)=O)s2)cs1` (stereo not given) [arotinolol], the mCherry in assay [1] turned out to be 112%. For the same molecule, in assay [2], the percent effect was -0.0991%.

Turning to `Cc1scc2c1N(C(=O)CN1CCN(C)CC1)c1ccccc1NC2=O` [telenzepine], in assay [1], the mCherry is 93.5%. Moreover, the percent effect in assay [2] is -2.73%.

`S=P(N1CC1)(N1CC1)N1CC1` [thiotepa] yielded a mCherry in assay [1] of 97.2%. In addition, the percent effect in assay [2] was -2.12%.

The molecule `NC(=O)c1cn(Cc2c(F)cccc2F)nn1` [rufinamide] returned a mCherry in assay [1] of 82.7%. Also, the percent effect in assay [2] was -2.75%.

(Values after the supplement of paper PMC8256030.)
